Some compounds share one wording; it may come from a single statement.
System: glycoalbumin
Assay: Influence of preservatives in the solution on GA values in the HPLC assay
Details: preservative in the solution; not illustrated

Cn1sc(Cl)cc1=O [CMIT]
tendency of GA values in the HPLC assay when the component is present: higher than actual values

Cn1sccc1=O [MIT]
tendency of GA values in the HPLC assay when the component is present: higher than actual values

C[C@@H](O)[C@H]1C(=O)N2C(C(=O)O)=C(S[C@@H]3CN[C@H](C(=O)N(C)C)C3)[C@H](C)[C@H]12 [Meropenem trihydrate, reference compound]
tendency of GA values in the HPLC assay when the component is present: higher than actual values

Reference: patent US20260085293A1, “SOLUTION AND METHOD FOR TRANSPORTING OR STORING BODY FLUID SAMPLE” (PROVIGATE INC., priority 2023, published 2026)
